# In PMC12533068:
# B1: Myc-TRIM56 (tripartite motif-containing protein 56) (protein, UniProt Q9BRZ2 1-755)
# chain: MVSHGSSPSLLEALSSDFLACKICLEQLRAPKTLPCLHTYCQDCLAQLADGGRVRCPECRETVPVPPEGVASFKTNFFVNGLLDLVKARACGDLRAGKPACALCPLVGGTSTGGPATARCLDCADDLCQACADGHRCTRQTHTHRVVDLVGYRAGWYDEEARERQAAQCPQHPGEALRFLCQPCSQLLCRECRLDPHLDHPCLPLAEAVRARRPGLEGLLAGVDNNLVELEAARRVEKEALARLREQAARVGTQVEEAAEGVLRALLAQKQEVLGQLRAHVEAAEEAARERLAELEGREQVARAAAAFARRVLSLGREAEILSLEGAIAQRLRQLQGCPWAPGPAPCLLPQLELHPGLLDKNCHLLRLSFEEQQPQKDGGKDGAGTQGGEESQSRREDEPKTERQGGVQPQAGDGAQTPKEEKAQTTREEGAQTLEEDRAQTPHEDGGPQPHRGGRPNKKKKFKGRLKSISREPSPALGPNLDGSGLLPRPIFYCSFPTRMPGDKRSPRITGLCPFGPREILVADEQNRALKRFSLNGDYKGTVPVPEGCSPCSVAALQSAVAFSASARLYLINPNGEVQWRRALSLSQASHAVAALPSGDRVAVSVAGHVEVYNMEGSLATRFIPGGKASRGLRALVFLTTSPQGHFVGSDWQQNSVVICDGLGQVVGEYKGPGLHGCQPGSVSVDKKGYIFLTLREVNKVVILDPKGSLLGDFLTAYHGLEKPRVTTMVDGRYLVVSLSNGTIHIFRVRSPDS
# Target: HA-Src SH3 domain-deleted mutant (human) (UniProt P12931)
# Assay: co-IP; HEK293T (and Huh7, Fig. 1B) cells co-transfected with Myc-TRIM56 or its domain-deleted mutants and HA-Src or its domain-deleted mutants; which tag was precipitated is not told
binder,measurement,value
B1,binding,no binding

# These are yes or no findings as the source states them, for the method shown. Binding seen in cells or lysates may run through a third protein. Sequences can lack the tags named with a protein.
